End groups of sequences in plain letters are not given here.
Assay: peptide made by a vendor
Conditions: whole synthesis

With RSFSTFDKDTDSAITNCALSYKGAFWYRN the outcome was “The facility was unable to synthesize peptide 7”.

— US20200362024A1 (IMPERIAL INNOVATIONS LIMITED, priority 2009, published 2020)
